Reference: patent US8377929B2, “Crystalline forms of the tri-mesylate salt of perphenazine-GABA and process of producing the same” (Ramot at Tel-Aviv University Ltd., priority 2010, dated 2013)
At least one compound was matched to its structure with a doubt left.

Test: Particle size (Malvern MS2000)
Assay type: physicochemical
Details: 0.1% SPAN 85 in hexane, sonication 10 seconds
Text: Particle size data was acquired using a Malvern Instruments MS2000 equipped with a Hydro2000 μP dispersion unit. Data was collected and analyzed with Mastersizer 2000 v. 5.1 software, using volume based measurements. NIST traceable glass beads were used as the reference standard. […] Model: general purpose; Sensitivity: normal.

CS(=O)(=O)O.CS(=O)(=O)O.CS(=O)(=O)O.NCCCC(=O)OCCN1CCN(CCCN2c3ccccc3Sc3ccc(Cl)cc32)CC1 [BL-1020 MSA salt crystalline Form B, perphenazine 4-aminobutyrate trimesylate]
Particle size (overall range / upper size): 0.4 μm to greater than 1000
